Results: the supplement of paper PMC7877785
± gives the uncertainty stated by the source. Many of these values have a large error.

Test: self-splicing fitness, log relative to wild type (ln ratio); higher = more splicing; Tetrahymena group I intron in knt gene, E. coli kanamycin selection, DiMSum; sequences stand for … in CUCUCU…GGAGGGAAAAGUUAUCAGGCAUGCACCUGGUAGCUAGUCUUUAAACCAAUAGAUUGCAUCGGUUUAAAAGGCAAGACCGUCAAAUUGCGGGAAAGGGGUCAACAGCCGUUCAGUACCAAGUCUCAGGGGAAACUUUGAGAUGGCCUUGCAAAGGGUAUGGUAAUAAGCUGACGGACAUGGUCCUAACCACGCAGCCAAGUCCUAAGUCAACAGAUCUUCUGUUGAUAUGGAUGCAGUUCACAGACUAAAUGUCGGUCGGGGAAGAUGUAUUCUUCUCAUAAGAUAUAGUCGGACCUCUCCUUAAUGGGAGCUAGCGGAUGAAGUGAUGCAACACUGGAGCCGCUGGGAACUAAUUUGUAUGCGAAAGUAUAUUGAUUAGUUUUGGAGUACUCGUGGUCG
Summary of the method: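 A randomised library covering all eight P1ex-region intron nucleotides was built with the intron in the knt kanamycin-resistance gene on pET-22b(+) and held in E. coli BL21(DE3). Cells were grown overnight at 37°C or 30°C on LB agar, with or without 25 μg/mL kanamycin, plus 100 μg/mL carbenicillin, 50 μM IPTG and 0.2% rhamnose, and pooled colonies were amplicon-sequenced on an Illumina HiSeq 2500. DiMSum fitness is the error-weighted combination of wild-type-normalised replicate fold changes, kanamycin versus none.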

Sequence | self-splicing fitness (ln) (30 °C) | self-splicing fitness (ln) (37 °C)
GGUAAGCAAUAUUACGCCCG | -2.57 ± 0.77 | 
CGGUAGCAAUAUUACGAGAC | -4.06 ± 0.52 | -2.54 ± 0.75
UCGAAGCAAUAUUACGCGCA | 0.425 ± 0.26 | -0.635 ± 0.21
ACAGAGCAAUAUUACGAAUC |  | -0.645 ± 0.58
UCGUAGCAAUAUUACGCCUC | -2.81 ± 1.1 | 
AUAGAGCAAUAUUACGUGCU |  | -2.11 ± 0.56
AGUGAGCAAUAUUACGAGAA |  | 0.161 ± 0.71
ACUGAGCAAUAUUACGCCGG |  | -2.48 ± 0.77
GGGCAGCAAUAUUACGAGGG | -3.93 ± 0.34 | -2.39 ± 0.24
UUAUAGCAAUAUUACGACCC | -2.09 ± 1.4 | 
AAGAAGCAAUAUUACGGAAC | -3.9 ± 0.6 | 
UUCGAGCAAUAUUACGCUAC | -3.23 ± 1 | 
UAUGAGCAAUAUUACGUAAC |  | -2.43 ± 1.1
AGUAAGCAAUAUUACGAGGC |  | -3.3 ± 1
GAUUAGCAAUAUUACGUAGC | -1.74 ± 0.14 | -1.33 ± 0.18
GUUAAGCAAUAUUACGGUAU | -1.36 ± 0.11 | -0.895 ± 0.12
UAUAAGCAAUAUUACGAGAA | -0.993 ± 0.82 | -1.08 ± 0.52
AUUGAGCAAUAUUACGAGCG |  | -2.76 ± 0.53
CUGGAGCAAUAUUACGUCGG |  | -2.49 ± 0.62
UUCGAGCAAUAUUACGGCAC |  | -1.72 ± 0.7
UUUGAGCAAUAUUACGGGGG |  | -3.99 ± 0.51
CUUUAGCAAUAUUACGAGUC | -3.76 ± 0.6 | 
CCCGAGCAAUAUUACGCGUA | -3.06 ± 0.21 | -2.05 ± 0.21
CGGGAGCAAUAUUACGGCCA | 0.987 ± 0.73 | -1.33 ± 0.64
UACCAGCAAUAUUACGUAGU | -2.96 ± 0.099 | -1.65 ± 0.1

Looked up one by one from the list above, four records:
Sequence | self-splicing fitness (ln) (30 °C) | self-splicing fitness (ln) (37 °C)
AGUGAGCAAUAUUACGAGAA |  | 0.161 ± 0.71
GGUAAGCAAUAUUACGCCCG | -2.57 ± 0.77 | 
UACCAGCAAUAUUACGUAGU | -2.96 ± 0.099 | -1.65 ± 0.1
AAGAAGCAAUAUUACGGAAC | -3.9 ± 0.6 | 

Later entries

Sequence | self-splicing fitness (ln) (30 °C) | self-splicing fitness (ln) (37 °C)
UACGAGCAAUAUUACGUGGC | -3.48 ± 0.53 | -2.9 ± 0.61
CUACAGCAAUAUUACGUUGC | -3.67 ± 0.23 | -2.82 ± 0.21
UUGGAGCAAUAUUACGCCGG | -2.42 ± 0.82 | 
CAACAGCAAUAUUACGCGAU | -5.11 ± 0.45 | -2.63 ± 0.23
UUUCAGCAAUAUUACGGAAC |  | -2.67 ± 1.1
CUAGAGCAAUAUUACGGUUC | -3.81 ± 0.6 | -3.7 ± 0.59
UUACAGCAAUAUUACGCCAU | -2.91 ± 0.25 | -2.48 ± 0.27
CGAAAGCAAUAUUACGAUAU | -3.42 ± 0.28 | -1.27 ± 0.2
UCUUAGCAAUAUUACGAUAU | -4.46 ± 0.73 | 
CGGUAGCAAUAUUACGCCGC |  | -1.02 ± 0.66
GGCUAGCAAUAUUACGCCUA | -0.205 ± 0.23 | -1.69 ± 0.3
AGCGAGCAAUAUUACGCAGG |  | -2.89 ± 0.53
CUGAAGCAAUAUUACGCCGA |  | -3.03 ± 0.54
CGAGAGCAAUAUUACGCUCA | -2.44 ± 0.78 | -0.527 ± 0.62
UACGAGCAAUAUUACGUUGG | -4.53 ± 0.73 | 
AGAGAGCAAUAUUACGACGA | -2.89 ± 0.54 | 
UAGGAGCAAUAUUACGAUAU | -3.96 ± 0.33 | -2.46 ± 0.28
UGAGAGCAAUAUUACGGAGU |  | -3.1 ± 0.53
ACAGAGCAAUAUUACGGGAC |  | -2.06 ± 0.6
UCUGAGCAAUAUUACGCACA | -3.97 ± 0.6 | 
CAUCAGCAAUAUUACGCCGC |  | -1.97 ± 0.57
UAAGAGCAAUAUUACGUAUC | -4.69 ± 1 | -2.67 ± 1.1
AGCGAGCAAUAUUACGGGCU | -3.44 ± 0.6 | 
UCGUAGCAAUAUUACGUACC |  | -0.468 ± 0.68
UCGGAGCAAUAUUACGCGGC |  | -0.995 ± 0.53

Given tab-delimited: entries from further up
Sequence	self-splicing fitness (ln) (30 °C)	self-splicing fitness (ln) (37 °C)
UCUGAGCAAUAUUACGCACA	-3.97 ± 0.6	
CAUCAGCAAUAUUACGCCGC		-1.97 ± 0.57

Later entries.

Sequence | self-splicing fitness (ln) (30 °C) | self-splicing fitness (ln) (37 °C)
CCUUAGCAAUAUUACGACUA | -2.77 ± 0.51 | -2.23 ± 0.5
UCAAAGCAAUAUUACGCAAC |  | -2.99 ± 0.53
GGGGAGCAAUAUUACGAGAG |  | -1.6 ± 0.59
CCUUAGCAAUAUUACGCCUC | -3.57 ± 0.52 | 
UUACAGCAAUAUUACGCUGC |  | -2.19 ± 0.79
AGAUAGCAAUAUUACGUGAC | -3.44 ± 0.23 | -2.71 ± 0.48
GAGGAGCAAUAUUACGCGCC |  | -1.08 ± 0.66
AGUUAGCAAUAUUACGCCGC |  | -0.457 ± 0.68
GUCGAGCAAUAUUACGGCAG | -4.14 ± 0.6 | 
CGUAAGCAAUAUUACGCUAC | -3.48 ± 0.79 | 
UAGGAGCAAUAUUACGAGGA |  | -2.2 ± 0.55
AGGGAGCAAUAUUACGAUCA | -3.83 ± 0.6 | 
AAGGAGCAAUAUUACGGAUA | -3.9 ± 0.35 | -1.99 ± 0.29
CGUUAGCAAUAUUACGCUAA | -3.12 ± 0.76 | 
UUUUAGCAAUAUUACGACUU | -1.64 ± 0.32 | -1.14 ± 0.33
GGGGAGCAAUAUUACGCACU |  | -1.18 ± 0.55
GACUAGCAAUAUUACGCCAG |  | -2.17 ± 0.65
UUUUAGCAAUAUUACGUUGC |  | -2.36 ± 0.63
ACGGAGCAAUAUUACGGAGC |  | -2.53 ± 0.62
CGUCAGCAAUAUUACGCCUU | -4.75 ± 0.59 | 
CCCCAGCAAUAUUACGACCC |  | -2.02 ± 0.64
UAGGAGCAAUAUUACGGGCC | -3.31 ± 1 | -2.25 ± 0.78
GCAGAGCAAUAUUACGCAGC |  | -1.64 ± 0.66
AGAGAGCAAUAUUACGGCAC | -4.19 ± 0.59 | 
UAAGAGCAAUAUUACGCGGC | -3.94 ± 0.72 | -2.57 ± 1.1

Sequence | self-splicing fitness (ln) (30 °C) | self-splicing fitness (ln) (37 °C)
UUCCAGCAAUAUUACGGUAA | -0.236 ± 0.087 | -0.0663 ± 0.086
CCUAAGCAAUAUUACGGAGC |  | -3.14 ± 0.6
AUUCAGCAAUAUUACGAGAU | -2.7 ± 0.17 | -0.722 ± 0.13
UCAGAGCAAUAUUACGUCAC |  | -2.86 ± 0.75
UCGAAGCAAUAUUACGCACC | -4.21 ± 1 | 
CUGCAGCAAUAUUACGAACC |  | -1.98 ± 1.1
AGGCAGCAAUAUUACGGAUG | -2.3 ± 0.1 | -2.58 ± 0.21
CAUGAGCAAUAUUACGUUUG | -3.57 ± 0.16 | -2.89 ± 0.2
UACCAGCAAUAUUACGGAAG | -3.5 ± 0.24 | -1.57 ± 0.16
CAAAAGCAAUAUUACGGUUC | -3.56 ± 0.22 | -1.83 ± 0.18
GACGAGCAAUAUUACGGGAG | -5.31 ± 0.72 | -2.4 ± 0.54
UCAGAGCAAUAUUACGGGAA | -4.62 ± 1 | 
GAUAAGCAAUAUUACGGGGA | -2.76 ± 0.55 | 
GUGCAGCAAUAUUACGCAUU | -3.59 ± 0.52 | 
UAUCAGCAAUAUUACGCGCA | -0.571 ± 0.091 | 0.506 ± 0.11
UUUCAGCAAUAUUACGAGCU | -2.31 ± 0.68 | 
AUUUAGCAAUAUUACGAGCC |  | -2.72 ± 0.75
AGGGAGCAAUAUUACGGUCC | -3.47 ± 1 | -2.17 ± 0.65
GUGGAGCAAUAUUACGAGUG | -3.29 ± 0.53 | 
ACACAGCAAUAUUACGAAAC | -3.02 ± 0.23 | -1.82 ± 0.22
AGAGAGCAAUAUUACGAAAC |  | -0.927 ± 1.2
CCCGAGCAAUAUUACGAGAC | -2.84 ± 0.75 | -3.17 ± 0.74
